No constants are given. Whether binding was seen depends on the method and setting. In cells and extracts the contact can be indirect. Some results given as binding are weak or reduced against the parent protein; the word gives no strength. Sequences can lack the tags named with a protein.
Target: T1, GST-PPARα (peroxisome proliferator-activated receptor α, NR1C1) (UniProt Q07869)
T1 sequence: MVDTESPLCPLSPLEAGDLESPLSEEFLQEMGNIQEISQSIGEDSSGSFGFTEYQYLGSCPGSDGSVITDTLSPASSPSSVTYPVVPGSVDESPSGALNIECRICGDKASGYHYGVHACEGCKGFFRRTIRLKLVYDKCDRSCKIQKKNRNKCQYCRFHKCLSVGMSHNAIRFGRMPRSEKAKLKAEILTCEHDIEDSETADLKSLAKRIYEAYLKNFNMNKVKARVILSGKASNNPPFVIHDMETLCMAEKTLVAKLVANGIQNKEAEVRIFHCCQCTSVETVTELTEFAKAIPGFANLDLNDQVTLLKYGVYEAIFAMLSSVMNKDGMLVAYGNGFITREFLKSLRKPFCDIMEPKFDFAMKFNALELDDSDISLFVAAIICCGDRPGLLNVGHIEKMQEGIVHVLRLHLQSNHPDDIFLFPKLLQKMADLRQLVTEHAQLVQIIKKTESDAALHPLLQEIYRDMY
Assay: pull-down; 2 μg GST-PPARα on glutathione beads with 10 μl in vitro translated [35S]-methionine labeled GRα or p65, with increasing amounts of non-labeled GRα, labeled GRα or labeled p65; 200 μl 20 mM Tris-HCl pH 8, 300 mM NaCl, 6 mM MgCl2, 8% glycerol, 0.05% Nonidet P-40, 0.1% dithiothreitol; 2 h at 4°C; washes at 500 mM NaCl; autoradiography; only the target purified

The chains behind the UniProt entries cited, without tags or fusion partners.
UniProt Q04206: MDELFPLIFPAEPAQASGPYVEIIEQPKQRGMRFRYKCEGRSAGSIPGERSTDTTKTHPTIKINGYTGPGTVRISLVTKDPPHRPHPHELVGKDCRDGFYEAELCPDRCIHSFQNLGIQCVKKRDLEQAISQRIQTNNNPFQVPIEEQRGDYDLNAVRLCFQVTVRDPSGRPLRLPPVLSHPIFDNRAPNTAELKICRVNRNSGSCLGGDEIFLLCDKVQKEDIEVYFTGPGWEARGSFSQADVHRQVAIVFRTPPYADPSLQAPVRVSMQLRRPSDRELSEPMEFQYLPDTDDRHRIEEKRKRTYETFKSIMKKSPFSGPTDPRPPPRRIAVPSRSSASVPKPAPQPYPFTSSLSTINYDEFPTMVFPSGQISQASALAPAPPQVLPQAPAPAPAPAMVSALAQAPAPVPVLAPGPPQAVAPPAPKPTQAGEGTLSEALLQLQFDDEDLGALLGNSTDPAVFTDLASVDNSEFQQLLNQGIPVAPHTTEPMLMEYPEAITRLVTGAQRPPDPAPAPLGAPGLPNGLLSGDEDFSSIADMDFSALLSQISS
UniProt P04150: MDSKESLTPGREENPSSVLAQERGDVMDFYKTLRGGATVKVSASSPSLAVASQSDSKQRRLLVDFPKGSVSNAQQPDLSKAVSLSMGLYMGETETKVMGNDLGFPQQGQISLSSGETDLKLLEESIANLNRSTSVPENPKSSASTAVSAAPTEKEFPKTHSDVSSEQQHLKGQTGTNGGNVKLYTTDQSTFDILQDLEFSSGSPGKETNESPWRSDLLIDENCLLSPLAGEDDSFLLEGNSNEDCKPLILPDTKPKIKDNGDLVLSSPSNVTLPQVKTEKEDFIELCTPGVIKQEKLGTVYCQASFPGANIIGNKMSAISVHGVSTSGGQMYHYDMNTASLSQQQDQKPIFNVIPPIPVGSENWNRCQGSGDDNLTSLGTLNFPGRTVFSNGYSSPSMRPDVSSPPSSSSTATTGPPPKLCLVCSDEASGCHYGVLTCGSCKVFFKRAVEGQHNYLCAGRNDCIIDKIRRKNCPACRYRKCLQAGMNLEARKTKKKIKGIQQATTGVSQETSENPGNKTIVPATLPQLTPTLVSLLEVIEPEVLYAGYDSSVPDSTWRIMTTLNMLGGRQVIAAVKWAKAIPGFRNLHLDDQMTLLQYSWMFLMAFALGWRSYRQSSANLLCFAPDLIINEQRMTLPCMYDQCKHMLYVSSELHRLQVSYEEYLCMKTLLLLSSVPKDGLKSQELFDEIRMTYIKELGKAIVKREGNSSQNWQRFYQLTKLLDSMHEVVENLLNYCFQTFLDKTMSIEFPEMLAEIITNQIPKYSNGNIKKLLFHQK

binding | Substance
binds | p65 subunit of NF-κB, in vitro translated (from UniProt Q04206 1-551)
binds | GRα (glucocorticoid receptor α, NR3C1), in vitro translated (from UniProt P04150 1-777)
